Test [1] has as its target cMyc-tagged PDLIM7 (WT) (human) (UniProt Q9NR12). As to the kind of experiment: co-IP; cMyc-PDLIM7 precipitated from lysates of T-REx-293 cells with doxycycline-induced Flag-OGA (WT/S652F) expression and endogenous OGA knockdown, co-expressing cMyc-PDLIM7 (WT), HA-p53 and ubiquitin, MG132; western blot. (In general: A western blot detects proteins with antibodies after separation by electrophoresis.)

Chains of the proteins cited; added tags and fusions are not shown. Lines headed by an entry give the natural chain unless they say otherwise; changes in a name come on top.
UniProt Q9NR12: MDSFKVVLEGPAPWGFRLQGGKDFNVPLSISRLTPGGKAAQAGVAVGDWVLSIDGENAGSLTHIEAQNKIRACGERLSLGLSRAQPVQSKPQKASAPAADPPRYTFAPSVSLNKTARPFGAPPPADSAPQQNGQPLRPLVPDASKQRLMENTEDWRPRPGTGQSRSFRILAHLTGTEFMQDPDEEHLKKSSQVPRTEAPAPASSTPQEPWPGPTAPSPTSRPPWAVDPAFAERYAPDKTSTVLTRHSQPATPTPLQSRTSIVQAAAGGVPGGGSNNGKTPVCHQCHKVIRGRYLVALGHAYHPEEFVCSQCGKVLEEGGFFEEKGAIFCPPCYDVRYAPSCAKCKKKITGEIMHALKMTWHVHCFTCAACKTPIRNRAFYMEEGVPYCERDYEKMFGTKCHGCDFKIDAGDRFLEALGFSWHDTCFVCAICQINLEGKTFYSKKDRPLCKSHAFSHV
UniProt Q00987: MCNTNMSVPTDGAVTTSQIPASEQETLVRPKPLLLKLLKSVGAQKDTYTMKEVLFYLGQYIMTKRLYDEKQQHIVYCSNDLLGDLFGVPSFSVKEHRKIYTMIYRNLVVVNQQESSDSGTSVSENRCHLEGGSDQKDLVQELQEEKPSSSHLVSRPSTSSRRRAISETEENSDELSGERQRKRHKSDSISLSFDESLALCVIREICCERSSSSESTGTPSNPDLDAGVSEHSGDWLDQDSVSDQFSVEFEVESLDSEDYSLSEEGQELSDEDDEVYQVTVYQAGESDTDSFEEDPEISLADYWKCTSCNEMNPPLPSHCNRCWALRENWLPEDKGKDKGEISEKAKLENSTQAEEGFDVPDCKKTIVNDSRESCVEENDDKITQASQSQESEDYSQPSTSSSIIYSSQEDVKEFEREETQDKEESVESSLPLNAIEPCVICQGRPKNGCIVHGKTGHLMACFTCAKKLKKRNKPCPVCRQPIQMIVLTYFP

The target is the same in test [2]. As to the kind of experiment: co-IP; cMyc-PDLIM7 (WT/S89A) precipitated on anti-cMyc agarose from lysates of T-REx-293 cells with doxycycline-induced knockdown of endogenous PDLIM7, co-expressing HA-p53 and ubiquitin, MG132; in Fig. 6e with or without Nutlin-3a; western blot.
The target of test [3] is cMyc-tagged PDLIM7 S89A mutant (human) (UniProt Q9NR12). The test is described as above.

Results are given in words; binding and its absence hold for the method and conditions named. In cells and extracts the contact can be indirect. Some results given as binding are weak or reduced against the parent protein; the word gives no strength. For some of these results: Sequences can lack the tags named with a protein.

For the molecule MDM2 (from UniProt Q00987 1-491), the binding entry in test [1], in test [2] and in test [3] was “binds” each time.

B1: Flag-tagged OGA S652F mutant (enzyme, UniProt O60502 1-916)
chain: MVQKESQATLEERESELSSNPAASAGASLEPPAAPAPGEDNPAGAGGAAVAGAAGGARRFLCGVVEGFYGRPWVMEQRKELFRRLQKWELNTYLYAPKDDYKHRMFWREMYSVEEAEQLMTLISAAREYEIEFIYAISPGLDITFSNPKEVSTLKRKLDQVSQFGCRSFALLFDDIDHNMCAADKEVFSSFAHAQVSITNEIYQYLGEPETFLFCPTEYCGTFCYPNVSQSPYLRTVGEKLLPGIEVLWTGPKVVSKEIPVESIEEVSKIIKRAPVIWDNIHANDYDQKRLFLGPYKGRSTELIPRLKGVLTNPNCEFEANYVAIHTLATWYKSNMNGVRKDVVMTDSEDSTVSIQIKLENEGSDEDIETDVLYSPQMALKLALTEWLQEFGVPHQYSSRQVAHSGAKASVVDGTPLVAAPSLNATTVVTTVYQEPIMSQGAALSGEPTTLTKEEEKKQPDEEPMDMVVEKQEETDHKNDNQILSEIVEAKMAEELKPMDTDKESIAESKSPEMSMQEDCISDIAPMQTDEQTNKEQFVPGPNEKPLYTAEPVTLEDLQLLADLFYLPYEHGPKGAQMLREFQWLRANSSVVSVNCKGKDSEKIEEWRSRAAKFEEMCGLVMGMFTRLSNCANRTILYDMYSYVWDIKSIMFMVKSFVQWLGCRSHSSAQFLIGDQEPWAFRGGLAGEFQRLLPIDGANDLFFQPPPLTPTSKVYTIRPYFPKDEASVYKICREMYDDGVGLPFQSQPDLIGDKLVGGLLSLSLDYCFVLEDEDGICGYALGTVDVTPFIKKCKISWIPFMQEKYTKPNGDKELSEAEKIMLSFHEEQEVLPETFLANFPSLIKMDIHKKVTDPSVAKSMMACLLSSLKANGSRGAFCEVRPDDKRILEFYSKLGCFEIAKMEGFPKDVVILGRSL
For the molecule B1, in test [1], the binding result is recorded as “binds”.
